This assay can be described thus: IkB Signaling. Particulars: ABC-DLBCL IkBa-CBG/CBR dual luciferase ratio (green luciferase fused to IkBa over red control in OCI-Ly3 lymphoma cells), 4 h. The gist of the method: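 Luminescence ratio of IκBα-fused green versus native red beetle luciferase in OCI-Ly3 cells, 4 h post-doxycycline with compound; red signal alone, scaled from basal (0%) to zero light (-100%), flagged nonspecific or cytotoxic effects.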
The mark [1] stands for this setting: measured here: control luc red channel unless noted.
Setting [2] is: measured here: IkB-luc green channel.
Where [3] appears, read: measured here: control luc red channel.

Each structure is given as a SMILES string. Some of the results follow. These are further read-outs of the screen, such as a control signal, another cell line or another target. No call is given for them. Most of these compounds were active or inconclusive in the main read-out, so they are no random draw. Potencies come from curve fits of mixed quality, noted in brackets.

As to `CC(C)CC(=O)Nc1ccc(S(=O)(=O)Nc2cc3c(cc2N2CCOCC2)n(C)c(=O)c(=O)n3C)cc1`, the AC50 under setting [1] was 31.6 µM [falling, single point].
Same read-out and setting: the result for `O=C(CCc1cn(Cc2ccccc2Cl)c2ccccc12)NC1CCCCC1` reads 2.51 µM [falling, full curve].
Same read-out and setting: with `CC(C)c1ccc(NC(=O)C2CCN(c3nc(-c4ccc(C(C)C)cc4)no3)CC2)cc1` the figure was 1 µM [falling, full curve, poor fit]; with `CCCCc1nc2ccccc2n2c(-c3ccc(OC)cc3)c3c(=O)n(C)c(=O)n(C)c3c12`, 39.8 µM [falling, single point]; with `Cc1c(C(=O)N2CCC(C)CC2)c(S(=O)(=O)NCc2ccc(Br)cc2)c(C)n1C`, 39.8 µM [falling, single point].
The same measure, in the same setting: with `COc1ccc(CNC(=O)c2cc(-c3cccc(Cl)c3)on2)cc1` the figure was 25.1 µM [falling, partial curve].
As to `Cc1nc2sccn2c(=O)c1CCN1CCC(=C(c2ccc(F)cc2)c2ccc(F)cc2)CC1`, the AC50 is 25.1 µM [falling, partial curve, poor fit] under setting [2] and 25.1 µM [falling, partial curve] under setting [3].
On to `O=C(Cc1ccccc1F)Nc1nc(-c2cccs2)cs1`, for which the concentration at half-maximal activity (AC50) under setting [1] was 12.6 µM [falling, partial curve].
Same read-out and setting: with `Fc1ccc(-c2cc(-c3nc(-c4ccccc4)no3)[nH]n2)cc1` the figure was 0.0316 µM [falling, full curve].
Still for that read-out and setting: the result for `CCOC(=O)c1cc(-c2ccc(F)cc2)n(CC(=O)Nc2nccs2)c1C` reads 12.6 µM [falling, partial curve].
As for `Cc1cccc(N2CCN(CCNC(=O)c3cc4c(s3)CS(=O)(=O)C4)CC2)c1C`, the concentration at half-maximal activity (AC50) under setting [1] is 25.1 µM [falling, partial curve].
Same read-out and setting: the result for `COc1ccccc1N1CCN(CCNC(=O)Nc2cccc(C)c2C)CC1` reads 20 µM [falling, partial curve]; that for `Cc1ccccc1CNC(=O)c1cccc(NC(=O)c2nsc3ccccc23)c1`, 15.8 µM [falling, partial curve].
On the same count and under the same terms, with `COc1ccccc1OCC(=O)Nc1nnc(-c2ccco2)s1` the figure was 10 µM [falling, partial curve]; with `COc1ccccc1C1=NS(=O)(=O)N(C)C(C(=O)Nc2cc(OC)c(OC)c(OC)c2)=C1`, 1.58 µM [falling, partial curve]; with `CC(C)Cn1cc(NC(=O)NCc2ccccc2)c2ccccc2c1=O`, 0.794 µM [rising, full curve, poor fit].
The same measure, in the same setting: with `Cc1nc2nc(SCC(=O)Nc3cccc(Cl)c3)nn2c(C)c1Cc1ccccc1` the figure was 12.6 µM [falling, partial curve]; with `CN(C(=O)CSc1nc2ccc(NC(=O)c3ccccc3F)cc2s1)c1ccccc1`, 10 µM [falling, partial curve].
For the compound `CCCCn1cc(S(=O)(=O)c2ccc(OCC)cc2)c(=O)c2cc(OC)c(OC)cc21`, the AC50 under setting [1] is 31.6 µM [falling, single point].
The same measure, in the same setting: with `Cc1cc2n(n1)C(c1ccc(O)cc1)Nc1ccccc1-2` (stereo not drawn) the figure was 20 µM [falling, partial curve]; with `CCOc1ccc(CNC(=O)Cn2nc(C)n3cccc3c2=O)cc1`, 10 µM [falling, partial curve].
Same read-out and setting: the result for `Cc1ccc(NC(=O)CN(CCc2ccccc2)S(=O)(=O)c2ccccc2)c(C)c1` reads 39.8 µM [falling, single point]; that for `COc1cc(NC(=O)c2noc3c2CCC3)c(OC)cc1Cl`, 20 µM [falling, partial curve]; that for `Cc1cccc(/N=C/c2c(O)c3ccccc3oc2=O)n1`, 5.01 µM [falling, partial curve].
As to `COCCN1Cc2cccc(C(=O)Nc3ccc(C)c(F)c3)c2C1=O`, the AC50 under setting [1] was 3.98 µM [rising, partial curve].
`Cc1cc(C)cc(NC(=O)C(=O)NCC(c2ccc3c(c2)OCO3)N2CCOCC2)c1` (stereo not drawn): the AC50 under setting [1] is 1.58 µM [rising, partial curve].
Still for that read-out and setting: with `COc1ccc(N2CCN(CC(O)COc3ccc(C)cc3C)CC2)cc1` (stereo not drawn) the figure was 25.1 µM [falling, single point]; with `Cc1ccc(CNC(=O)CCS(=O)(=O)c2cc3c(cc2Cl)NC(=O)CO3)cc1`, 12.6 µM [falling, partial curve].
As to `CC1=C(c2ccc(C)cc2)S(=O)(=O)NC1=NCCCN1CCN(c2cc(C)ccc2C)CC1`, the concentration at half-maximal activity (AC50) under setting [1] is 1.26 µM [rising, full curve].
On the same count and under the same terms, with `Cc1ccc(Cl)cc1N1CCN(C(=O)CN2C(=O)COc3ccc(S(=O)(=O)N4CCC(C)CC4)cc32)CC1` the figure was 7.94 µM [falling, full curve]; with `O=C(NCc1ccc(Cl)cc1)c1ccc(NC(=O)N2CC3CCCN3c3ccccc32)cc1` (stereo not drawn), 10 µM [falling, partial curve]; with `O=C(NCc1ccc(F)cc1)c1cc(Sc2ccc(F)cc2F)nc2ccccc12`, 31.6 µM [falling, partial curve].
On to `O=S(=O)(NCc1ccccc1Cl)c1ccc(-c2cnc(C3CC3)o2)cc1`, for which, under setting [1], the AC50 was 39.8 µM [falling, partial curve].
Same read-out and setting: the result for `COc1ccc(N2C(=O)CSC23C(=O)N(Cc2ccccc2F)c2ccccc23)cc1Cl` (stereo not drawn) reads 25.1 µM [falling, single point]; that for `COc1cccc(-c2nc3ccc(O)cc3c(=O)o2)c1`, 0.398 µM [falling, full curve].
Same read-out and setting: the result for `CCC1=Nc2cc(C(=O)NCc3ccccc3OC)ccc2Sc2ccc(Cl)cc21` reads 5.01 µM [falling, partial curve].
Still for that read-out and setting: with `COCCNc1ncnc2c1cnn2-c1cc(Cl)ccc1C` the figure was 15.8 µM [falling, partial curve].
As for `COc1ccc2[nH]c(=O)c(CN(CC3CCCO3)C(=O)Nc3ccc(F)cc3)cc2c1` (stereo not drawn), the AC50 under setting [1] was 12.6 µM [falling, partial curve].
With `C=C(C)COc1ccc(-c2nc(N)ncc2Oc2ccc(OC)cc2)c(O)c1`, the AC50 under setting [1] is 20 µM [falling, partial curve].
Same read-out and setting: with `CC(C)Cn1c(=O)c(C(=O)Nc2ccccc2S(N)(=O)=O)c(O)c2ccccc21` the figure was 2.51 µM [falling, full curve].
On the same count and under the same terms, with `CCCS(=O)(=O)NCCc1csc2nc(-c3ccc(C)cc3)nn12` the figure was 1.26 µM [rising, partial curve]; with `CCOC(=O)c1ccc(S(=O)(=O)Nc2ccccc2-c2nnn(CC)n2)cc1`, 39.8 µM [falling, partial curve]; with `Cc1ccccc1OCCCn1c(CCNC(=O)C2CCCCC2)nc2ccccc21`, 15.8 µM [falling, partial curve].
On to `CN(C(=O)Cn1c(=O)n(CCC(=O)NCc2ccc3c(c2)OCO3)c(=O)c2sccc21)c1ccccc1`, for which the AC50 under setting [1] was 5.01 µM [falling, full curve, poor fit].
On the same count and under the same terms, with `Cc1ccc(-n2ncc(C(=O)N3CCN(C4CCCCC4)CC3)c2C2CCN(C(=O)OC(C)(C)C)CC2)cc1C` the figure was 15.8 µM [falling, partial curve].
Same read-out and setting: the result for `COc1ccc(CCNC(=O)c2nnn(-c3ccccc3OC)c2N)cc1OC` reads 12.6 µM [falling, partial curve].
For the compound `CN(C)/C=C1\C(=O)c2ccc(N(C)C)nc2CC1c1ccccc1` (stereo not drawn), the AC50 under setting [1] is 20 µM [falling, partial curve, poor fit].
Still for that read-out and setting: the result for `Cn1c(CN2CCOCC2)nc2cc(NC(=O)c3ccc(Cl)cc3)ccc21` reads 7.94 µM [falling, partial curve]; that for `O=C1C(=O)c2ccccc2C(O)=C1C(C1=C(O)c2ccccc2C(=O)C1=O)c1ccc(Cl)cc1`, 1.26 µM [falling, partial curve]; that for `CC1CCCN(S(=O)(=O)c2ccc(NC(=O)Cn3nnc(-c4ccccc4F)n3)cc2)C1` (stereo not drawn), 31.6 µM [falling, partial curve].
Consider `CCOc1ccc(NC(=O)CC2C(=O)N(c3ccc(F)cc3)C(=O)N2CCc2sccc2C)cc1` (stereo not drawn), for which the AC50 under setting [1] was 31.6 µM [falling, single point].
For `COc1ccc(NC(=O)CN2C(=O)CSc3ccc(S(=O)(=O)N(C)C)cc32)cc1OC`, the AC50 under setting [2] was 2 µM [rising, partial curve] and the AC50 under setting [3] is 1.58 µM [rising, full curve].
In the case of `Cc1nc(NC2=NCN(CCCN3CCOCC3)CN2)nc2c(C)cccc12`, the AC50 under setting [1] was 31.6 µM [rising, single point] [measured here: IkB-luc green channel].
The same measure, in the same setting: the result for `CCNS(=O)(=O)c1cc(-c2nnc(Nc3cccc(C(F)(F)F)c3)c3ccccc23)ccc1C` reads 20 µM [falling, partial curve].
In the case of `Cc1ccc(C)c(NC(=O)CCS(=O)(=O)c2cccc3nsnc23)c1`, under setting [1], the AC50 is 3.98 µM [falling, single point].
Still for that read-out and setting: the result for `Cc1ccc(NC(=O)Cn2c(CCC(=O)O)ccc2-c2cccs2)cc1Cl` reads 25.1 µM [falling, single point]; that for `Cn1c(=O)oc2cc(S(=O)(=O)N3CCCC(C(=O)N4CCN(c5ccc(Cl)cc5)CC4)C3)ccc21` (stereo not drawn), 15.8 µM [falling, single point].
Consider `Cc1ccc(C)c(N2CCN(C(=O)C3CCN(S(=O)(=O)c4ccc5[nH]c(=O)oc5c4)CC3)CC2)c1`, for which the AC50 under setting [1] was 10 µM [falling, partial curve].
On the same count and under the same terms, with `CCOC(=O)Nc1cccc(NC(=O)c2cc(OC)cc(OC)c2)c1` the figure was 10 µM [falling, partial curve].
Still for that read-out and setting: with `Cc1cccc(N2CCN(C(=O)CCCn3c(=O)[nH]c4ccsc4c3=O)CC2)c1C` the figure was 12.6 µM [falling, partial curve]; with `Cc1c(NS(=O)(=O)CC23CCC(CC2=O)C3(C)C)c(=O)n(-c2ccccc2)n1C` (stereo not drawn), 39.8 µM [rising, single point].

For the origin of these results see PubChem BioAssay AID445 (National Center for Advancing Translational Sciences (NCATS), 2006).
